Data source: PubChem BioAssay AID504784 (Drosophila RNAi Screening Center, 2011)
In all, the deposit lists about 17,000 reagents; below is an unselected part of those with a known target gene and a result. 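Each column is one replicate's B-score; the combined score over replicates was not deposited, so single values may mislead.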 A plus sign joins genes that one reagent is predicted to hit. Not all columns of the deposit are shown.

- Purpose: 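Fly genes whose silencing alters how much lipid cells keep in droplets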 (primary screen)
- Cell system: Drosophila Kc167 embryonic cells
- Reagent: long dsRNA against Drosophila genes, about 250 ng dsRNA per well
- Time to read-out: 4 days
- Conditions: cells fed 400 µM oleic acid bound to BSA
- Measured: 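Cells imaged and segmented; ratio of lipid droplet area to nuclear area, log-transformed, then normalised as a B-score over the screen; higher means more stored lipid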
- Scale: droplet/nuclear area B-score: higher = more stored lipid (overstorage)

target gene,DRSC id,"droplet/nuclear area B-score, replicate 1","droplet/nuclear area B-score, replicate 2"
Pgant9,DRSC05621,1.69,0.726
Pgant9,DRSC06584,1.32,0.615
Pgant9,DRSC07185,0.25,-0.667
Pgant9,DRSC07186,3.11,4.41
Pgant9,DRSC07187,2.87,-0.722
Pgant9,DRSC07189,0.466,-0.0759
Pgant9,DRSC21807,-0.33,0.154
Pgant9,DRSC22076,-1.37,-0.345
CG31845 (retired record),DRSC22257,-0.0269,1.32
CG31845 (retired record),DRSC23074,-0.756,
CG13454,DRSC10001,-0.0738,0.0443
Pp2B-14D,DRSC20270,0.144,-0.573
Pp2B-14D,DRSC23315,0.748,-1.99
Klp54D,DRSC07450,1.08,-1.12
CG2063,DRSC06811,0.807,-0.0504
fok,DRSC02103,-0.617,-1.08
CG2533,DRSC19855,-0.048,0.688
CG12817 + CG12420,DRSC22814,-0.381,-0.00904
Mur18B,DRSC20063,0.00383,-0.121
Vps50,DRSC06910,-0.271,-0.406
CG8097,DRSC20079,2.03,-0.666
Neurl4,DRSC10638,0.482,-1.59
UQCR-C1,DRSC15508,0.445,-4.94
ZIPIC,DRSC16349,0.0605,
Osi7,DRSC12176,1.15,-0.71
cGlr1,DRSC06270,0.379,
CG5080,DRSC00677,0.08,0.274
ndl,DRSC11374,-0.279,-0.825
CG5819,DRSC04520,-0.259,1.25
Rcd6,DRSC06054,1.79,0.318
CG3156,DRSC18503,-1.79,-0.688
Rab14,DRSC03403,-0.564,0.0319
Fpgs1,DRSC19857,-0.0271,-0.238
DIP2,DRSC08582,-0.0776,
Atac3,DRSC08579,1.35,0.403
CG34429,DRSC10120,1.54,1.36
Sik3,DRSC06505,-0.619,0.00306
Sik3,DRSC06771,-0.00334,-0.538
CG18128,DRSC04304,-0.00966,0.239
Fas2,DRSC17308,0.461,-1.24
Fas2,DRSC17309,-0.572,1.23
Fas2,DRSC18664,-0.796,
wapl,DRSC18851,0.243,0.681
Rpn5,DRSC12367,-0.0658,-0.0268
CG15571,DRSC18059,0.661,1.51
Lgr1,DRSC16675,-0.49,-1.37
CG7369,DRSC11822,-0.594,-0.503
Hrb98DE,DRSC16709,1.31,
comm,DRSC11336,0.527,-1.43
CG34195,DRSC06909,0.0052,-0.387
CG13216,DRSC06338,2.47,2.41
Tsp42Ei,DRSC06189,0.776,-1.24
kdn,DRSC18328,1.23,1.65
CG42366,DRSC02760,1.83,0.277
CG42366,DRSC23297,-1.99,-0.183
cyp33,DRSC07600,0.124,1.15
Dad,DRSC16642,0.796,-0.0287
stmA,DRSC07593,-1.07,-0.019
stmA,DRSC22179,-0.409,0.543
CG34283,DRSC13313,-0.64,0.851
Hnf4,DRSC03344,1.12,2.85
CG8026,DRSC07055,-1.36,-0.125
CG8026,DRSC07056,0.341,-0.471
dec,DRSC18759,0.237,0.182
dec,DRSC21477,-0.127,1.14
CSN4,DRSC07350,-1.15,-3.11
olf413,DRSC11543,1.42,0.0353
olf413,DRSC11679,-0.0499,1.4
olf413,DRSC11721,-0.149,-1.28
olf413,DRSC11833,-1.08,0.0127
CG8517,DRSC07205,1.58,1.26
Rop,DRSC08693,0.0296,0.928
pad,DRSC14227,-0.0893,-0.638
Ccm3,DRSC15711,0.567,-0.619
CG33263,DRSC10108,-0.579,0.0549
CG11608,DRSC14334,-1.47,-0.827
CG31016,DRSC21359,0.307,-0.718
CG18581,DRSC10324,0.439,-0.78
CG14327,DRSC14806,-0.0687,0.103
IntS3,DRSC21215,-3.63,-2.32
CG8892,DRSC03121,0.676,-0.421
CG3907,DRSC04432,0.19,0.354
CG13681 (retired record),DRSC08906,0.0925,-0.0615
CG13681 (retired record),DRSC08907,0.86,-0.548
CG13681 (retired record),DRSC10038,-0.0582,-0.0491
CG13681 (retired record),DRSC10039,-0.241,-0.904
CG13681 (retired record),DRSC10927,0.0407,1.74
CG13681 (retired record),DRSC10929,0.0133,-0.167

Limited to “droplet/nuclear area B-score, replicate 2”, for 6 of the entries above:
CG18581 [DRSC10324] = -0.78
CG14327 [DRSC14806] = 0.103
IntS3 [DRSC21215] = -2.32
CG8892 [DRSC03121] = -0.421
CG3907 [DRSC04432] = 0.354
CG13681 (retired record) [DRSC08906] = -0.0615
